PubChem BioAssay AID504793, Drosophila RNAi Screening Center – 2011
The screen tested about 23,000 reagents; below is a random part of those that have a named target and a result. Over the whole deposit, 62 (0.27%) were called active. 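Calls come from follow-up tests whose scores are not deposited, so confirmed genes may have low counts here; counts are not normalised per plate.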 Raw values are not corrected between plates. The numbers tell different reagents against one gene apart. A plus sign joins genes that one reagent is predicted to hit.

Screen: 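Genes required for cells to halt at G2/M after double-strand DNA breaks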 (primary screen)
Cell system: Drosophila S2R+ cells
Knock-down reagent: long dsRNA against Drosophila genes, about 0.25 µg dsRNA per well
Duration: 4 days of dsRNA, then 4 hours of drug before read-out
Conditions: doxorubicin 0.5 µM for 4 hours to cause double-strand breaks, in cells also given a low, harmless dose of dsRNA against nbs to sensitise the assay
Measurement: 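Mitotic index as the number of phospho-histone H3-positive cells in each well following doxorubicin, given as raw counts without normalisation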
Reading the numbers: mitotic cells: higher = more cells in mitosis, weaker G2 arrest
Hit rule: 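Genes are called active only when high mitotic counts were reproduced with independent dsRNAs and mitosis was checked for delay without damage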
Meaning of the calls: active = confirmed in follow-up tests; inactive = not confirmed

gene | dsRNA no. | mitotic cells, replicate 1 | mitotic cells, replicate 2 | call
Nnp-1 | 1 | 5 | – | inactive
Nnp-1 | 2 | 10 | – | inactive
Lk6 (Lk6 kinase) | 1 | 2 | – | inactive
Lk6 (Lk6 kinase) | 2 | 6 | – | inactive
Lk6 (Lk6 kinase) | 3 | 6 | – | inactive
RhoGAP100F (Rho GTPase activating protein at 100F) | 1 | 10 | – | inactive
RhoGAP100F (Rho GTPase activating protein at 100F) | 2 | 8 | – | inactive
Vps28 (Vacuolar protein sorting 28) | 1 | 2 | – | inactive
Cht10 (Chitinase 10) | 1 | 10 | – | inactive
Cht10 (Chitinase 10) | 2 | 7 | – | inactive
Cht10 (Chitinase 10) | 3 | 5 | – | inactive
RfC38 (Replication factor C 38kD subunit) | 1 | 9 | – | inactive
DIP-gamma (Dpr-interacting protein gamma) | 1 | 5 | – | inactive
dar1 (dendritic arbor reduction 1) | 1 | 3 | – | inactive
CG18788 | 1 | 7 | – | inactive
Arpc4 (Actin-related protein 2/3 complex, subunit 4) | 1 | 6 | – | inactive
Arpc4 (Actin-related protein 2/3 complex, subunit 4) | 2 | 6 | – | inactive
CG5535 | 1 | 10 | – | inactive
CG5535 | 2 | 9 | – | inactive
CG6659 | 1 | 5 | – | inactive
Rexo5 (RNA exonuclease 5) | 1 | 5 | – | inactive
pnt (pointed) | 1 | 3 | – | inactive
pnt (pointed) | 2 | 3 | – | inactive
Sms (Spermine synthase) | 1 | 5 | – | inactive
CG9578 | 1 | 6 | – | inactive
CG9578 | 2 | 2 | – | inactive
Myb (Myb oncogene-like) | 1 | 7 | – | inactive
P5CS (Delta[1]-pyrroline-5-carboxylate synthase) | 1 | 5 | – | inactive
P5CS (Delta[1]-pyrroline-5-carboxylate synthase) | 2 | 4 | – | inactive
CG31142 | 1 | 4 | – | inactive
Ssk (Snakeskin) | 1 | 7 | – | inactive
Hrb27C (Heterogeneous nuclear ribonucleoprotein at 27C) | 1 | 23 | – | inactive
Hrb27C (Heterogeneous nuclear ribonucleoprotein at 27C) | 2 | 12 | – | inactive
CG33271 | 1 | 4 | – | inactive
CG13323 + CG13324 | 1 | 4 | – | inactive
CG8891 | 1 | 10 | – | inactive
CG8891 | 2 | 8 | – | inactive
CG10918 | 1 | 6 | – | inactive
CG10918 | 2 | 5 | – | inactive
ACXB (Adenylyl cyclase X B) | 1 | 8 | – | inactive
ACXB (Adenylyl cyclase X B) | 2 | 7 | – | inactive
CG13527 | 1 | 3 | – | inactive
Cip4 (Cdc42-interacting protein 4) | 1 | 1 | – | inactive
Cip4 (Cdc42-interacting protein 4) | 2 | 8 | – | inactive
SkpE (SKP1-related E) | 1 | 7 | – | inactive
Traf4 (TNF-receptor-associated factor 4) | 1 | 1 | – | inactive
Traf4 (TNF-receptor-associated factor 4) | 2 | 9 | – | inactive
CG13465 | 1 | 7 | – | inactive
Ctr9 | 1 | 6 | – | inactive
Ctr9 | 2 | 3 | – | inactive
CG13085 | 1 | 3 | – | inactive
CG13085 | 2 | 6 | – | inactive
CG14983 | 1 | 2 | – | inactive
CG14983 | 2 | 5 | – | inactive
CG4763 | 1 | 9 | – | inactive
CG4763 | 2 | 14 | – | inactive
CG9689 | 1 | 2 | – | inactive
CG9689 | 2 | 5 | – | inactive
TBC1D16 (TBC1 domain family member 16) | 1 | 2 | – | inactive
CG18004 | 1 | 7 | – | inactive
CG18004 | 2 | 3 | – | inactive
unc79 (uncoordinated 79) | 1 | 8 | – | inactive
unc79 (uncoordinated 79) | 2 | 1 | – | inactive
CG2004 | 1 | 5 | – | inactive
CG8668 | 1 | 2 | – | inactive
CG8668 | 2 | 1 | – | inactive
mmy (mummy) | 1 | 10 | – | inactive
CG9205 | 1 | 8 | – | inactive
CG3500 | 1 | 4 | – | inactive
CG3500 | 2 | 5 | – | inactive
Mdr65 (Multi drug resistance 65) | 1 | 7 | 11 | inactive
Atg2 (Autophagy-related 2) | 1 | 4 | – | inactive
UbcE2M (NEDD8-conjugating enzyme UbcE2M) | 1 | 4 | – | inactive
Amy-d (Amylase distal) | 1 | 5 | – | inactive
hng1 (hinge1) | 1 | 5 | – | inactive

11 consecutive reagents from above:
gene | dsRNA no. | mitotic cells, replicate 1 | mitotic cells, replicate 2 | call
Traf4 (TNF-receptor-associated factor 4) | 1 | 1 | – | inactive
Traf4 (TNF-receptor-associated factor 4) | 2 | 9 | – | inactive
CG13465 | 1 | 7 | – | inactive
Ctr9 | 1 | 6 | – | inactive
Ctr9 | 2 | 3 | – | inactive
CG13085 | 1 | 3 | – | inactive
CG13085 | 2 | 6 | – | inactive
CG14983 | 1 | 2 | – | inactive
CG14983 | 2 | 5 | – | inactive
CG4763 | 1 | 9 | – | inactive
CG4763 | 2 | 14 | – | inactive
